Laboratory results from publication PMC8291807.
These are yes or no findings as the source states them, for the method shown. Binding seen in cells or lysates may run through a third protein. Some binding calls cover weakened binding; strength is not graded here.

Protein sequences, listed by entry. Tags and fused reporters are not part of them.
UniProt P35222: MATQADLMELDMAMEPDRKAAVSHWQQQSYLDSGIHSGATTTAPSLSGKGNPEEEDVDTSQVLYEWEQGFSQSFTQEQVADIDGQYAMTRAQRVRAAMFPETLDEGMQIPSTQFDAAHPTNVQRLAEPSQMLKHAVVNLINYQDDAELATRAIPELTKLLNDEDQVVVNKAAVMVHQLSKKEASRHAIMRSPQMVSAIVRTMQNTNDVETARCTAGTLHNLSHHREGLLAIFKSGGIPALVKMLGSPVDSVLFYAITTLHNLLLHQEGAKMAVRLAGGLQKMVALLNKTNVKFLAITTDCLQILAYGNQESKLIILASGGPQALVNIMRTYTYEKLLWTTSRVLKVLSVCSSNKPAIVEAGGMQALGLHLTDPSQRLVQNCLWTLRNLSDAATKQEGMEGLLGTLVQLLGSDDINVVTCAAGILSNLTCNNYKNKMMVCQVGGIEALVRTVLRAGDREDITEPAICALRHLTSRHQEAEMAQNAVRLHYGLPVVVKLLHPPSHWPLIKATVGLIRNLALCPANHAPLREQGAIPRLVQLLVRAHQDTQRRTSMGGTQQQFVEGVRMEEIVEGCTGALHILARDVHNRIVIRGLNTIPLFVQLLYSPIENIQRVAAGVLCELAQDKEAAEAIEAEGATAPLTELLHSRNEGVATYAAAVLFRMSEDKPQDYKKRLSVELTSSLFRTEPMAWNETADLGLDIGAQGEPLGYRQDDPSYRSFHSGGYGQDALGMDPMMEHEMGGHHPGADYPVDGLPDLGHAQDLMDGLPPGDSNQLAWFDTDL
UniProt Q9UJU2: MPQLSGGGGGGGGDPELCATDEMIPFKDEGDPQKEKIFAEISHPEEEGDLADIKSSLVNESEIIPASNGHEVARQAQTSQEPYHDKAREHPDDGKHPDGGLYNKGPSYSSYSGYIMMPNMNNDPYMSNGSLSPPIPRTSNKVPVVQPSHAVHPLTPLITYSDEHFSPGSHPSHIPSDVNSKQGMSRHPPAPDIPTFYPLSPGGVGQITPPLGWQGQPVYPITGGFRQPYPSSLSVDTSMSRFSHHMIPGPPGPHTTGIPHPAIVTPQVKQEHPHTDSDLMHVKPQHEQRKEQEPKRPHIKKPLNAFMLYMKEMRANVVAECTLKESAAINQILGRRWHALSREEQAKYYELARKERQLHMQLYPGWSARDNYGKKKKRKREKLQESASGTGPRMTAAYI

Molecular target: phospho-β-catenin (human (endogenous in T24 and 5637)) (UniProt P35222)
Assay: co-IP; endogenous proteins of T24 and 5637 cells treated with Rosiglitazone (20 μM) or GW9662 (20 μM); pulled by phospho-β-catenin, LEF1 detected; more LEF1 with GW9662, less with Rosiglitazone

binding: binds
Substance: LEF1 (from UniProt Q9UJU2 1-399)
